# Source: publication PMC7819943, “Rice protein-binding microarrays: a tool to detect cis-acting elements near promoter regions in rice”
# Sequences of proteins named here, by UniProt entry; tags and fusion partners are left off.
# UniProt Q0JBA9, entry or part of it: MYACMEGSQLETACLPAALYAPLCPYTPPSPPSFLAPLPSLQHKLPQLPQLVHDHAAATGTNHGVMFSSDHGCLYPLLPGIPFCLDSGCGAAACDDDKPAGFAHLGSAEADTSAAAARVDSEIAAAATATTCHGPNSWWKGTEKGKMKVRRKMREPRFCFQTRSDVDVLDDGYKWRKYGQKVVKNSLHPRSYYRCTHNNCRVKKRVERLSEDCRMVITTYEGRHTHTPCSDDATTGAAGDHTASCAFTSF
# The other results are listed elsewhere or left out.
# Target: OsWRKY34 (Oryza sativa, UniProt Q0JBA9 1-250)
# Test: protein-binding microarray (RPBM); PBS, 2% BSA, 51.3 ng/ul salmon testes DNA, 50 uM zinc acetate, 200 nM TF, 25 C, 1 h; high values mean tight binding
# Conditions: protein: recombinant; tags: N-terminal polyhistidine and DsRed monomer fusion (pET32a); label: CyDye5-dUTP incorporated in the synthesized complementary strand; 3' TTTTT single-stranded linker to array surface; dsDNA, one strand shown
# Summary of the method: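 In PBS with 2% BSA, salmon testes DNA and 50 µM zinc acetate, 200 nM protein was incubated on a custom Agilent array at 25 °C for 1 h and then washed off. The array had been made double-stranded by primer extension with Cy5-dUTP and blocked with 2% BSA. The proteins were transcription factors fused N-terminally to polyhistidine and DsRed, expressed in E. coli BL21-CodonPlus and purified on Ni–NTA. The binding signal is per-feature fluorescence intensity (arbitrary units) from an Axon 4000B scanner.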
row,Sequence,binding signal
1,GCCCGGCTACCACCACGCCAACGCGCTCATTTCGTTCATTCGGAGTCACCTAGTGCAG,15400 fluorescence intensity (a.u.)
2,ACATCGCTCACTGTTTTCTTTCCGAGGTACCTCAACATTACGGAGTCACCTAGTGCAG,11100 fluorescence intensity (a.u.)
3,GCGTTATTCGCAGTCATTTGTTTTCTAATTATGTATGTCACGGAGTCACCTAGTGCAG,8670 fluorescence intensity (a.u.)
4,GTCAATTGTTCCTCTTGTTATGATTAGATCAGCCATTTTACGGAGTCACCTAGTGCAG,9840 fluorescence intensity (a.u.)
5,ATAGCAGCCTCTCTCCATCTCTCTCACACACTCAACTCAACGGAGTCACCTAGTGCAG,8380 fluorescence intensity (a.u.)
6,CCATTTGGACATCTCTGAATTCGTCTGTTCATCTTTACCACGGAGTCACCTAGTGCAG,10200 fluorescence intensity (a.u.)
7,ACCAGTGTCGCCTCCTACTGATGTGTTGAGAGTTTCTGAACGGAGTCACCTAGTGCAG,8400 fluorescence intensity (a.u.)
8,TCATGTGCCTCAACTTTTTTTACCACCCAATCCGCGTGCCCGGAGTCACCTAGTGCAG,8120 fluorescence intensity (a.u.)
9,TTCACGTCTCTTTCACATGTGCTTACAGTCGACTCGACTTCGGAGTCACCTAGTGCAG,8710 fluorescence intensity (a.u.)
10,GGTTTTGCGGTTCGATGATGATTTCGTATCTCGCTGACAACGGAGTCACCTAGTGCAG,8640 fluorescence intensity (a.u.)
11,AATCGATCTCCAATGCTCTGATACCACTTGTTATGAAAATCGGAGTCACCTAGTGCAG,8120 fluorescence intensity (a.u.)
12,ACTTCACTTCGCTCACCACATCACCACCTCACTCCACTAACGGAGTCACCTAGTGCAG,9760 fluorescence intensity (a.u.)
13,CGCGTAACCCACCCAATGTTTCACTCCTGCAGCACTTGACCGGAGTCACCTAGTGCAG,9370 fluorescence intensity (a.u.)
14,ACTTCGTCCTGCTACCGCTTGTTGACACTAGCCTCCTCACCGGAGTCACCTAGTGCAG,9050 fluorescence intensity (a.u.)
15,ATTTTTCTCCACGGGCAACAGTACATCGCCTGTCTTCTCTCGGAGTCACCTAGTGCAG,8050 fluorescence intensity (a.u.)
16,GGGCAACTTCCACTTGTACTACAAACCCTCTTATCTCAGACGGAGTCACCTAGTGCAG,10100 fluorescence intensity (a.u.)
17,TCATTGCACCTCTCATTTAACAAGGGATATAATAGTTCTTCGGAGTCACCTAGTGCAG,8360 fluorescence intensity (a.u.)
18,GCACACCAACTCGTCGATTCTTCCGGCAAATTCTTGCTTGCGGAGTCACCTAGTGCAG,8190 fluorescence intensity (a.u.)
19,TCGTTGTGTTTCATAGTTGTTTCGCCACATGTTTTTGTCTCGGAGTCACCTAGTGCAG,11300 fluorescence intensity (a.u.)
20,GTCGTCGTCCATGCCGCTCGCCTCCTTTTCTCCACTGTCGCGGAGTCACCTAGTGCAG,10100 fluorescence intensity (a.u.)
21,CCCATCGCATCCGCATCTCGGCATCTCGCGTCGCGACCCGCGGAGTCACCTAGTGCAG,10700 fluorescence intensity (a.u.)

row,Sequence,binding signal
1,ACATGTCCTTTTACGCTTATTTTCTACAATAACAACTATACGGAGTCACCTAGTGCAG,9910 fluorescence intensity (a.u.)
2,ACAGCTTCGTTCTTGACTTAATTAGGTCATTTTTTTGCAACGGAGTCACCTAGTGCAG,11200 fluorescence intensity (a.u.)
3,TTGATCTCAATCGCCGCCGCCGCCGCCGCCGCCGTCGCGGCGGAGTCACCTAGTGCAG,8260 fluorescence intensity (a.u.)
4,TTTCTGTCATATGAAAGTCTTGGTCTTGGTCGTCTGCTCGCGGAGTCACCTAGTGCAG,11100 fluorescence intensity (a.u.)
5,AGTGATTTTCGGTTAGTCCCGTCTTTTTCCAATGTGTGTTCGGAGTCACCTAGTGCAG,8920 fluorescence intensity (a.u.)
6,AGTTGGAGTTCTCATTTTAAAAGTGTATTGGTGTTCCTTTCGGAGTCACCTAGTGCAG,10400 fluorescence intensity (a.u.)
7,CCGCTGTCGTCGTCTCGTCTCTGTGTGTGTGTCTCCATCACGGAGTCACCTAGTGCAG,8280 fluorescence intensity (a.u.)
8,GGGAGAGCACGGGTGGGACGAGAGGGAGGAGGGGACTGGGCGGAGTCACCTAGTGCAG,12000 fluorescence intensity (a.u.)
9,ATAGTTGGTGTGTTGATTTGCCGGGTCGATTAGATCTACCCGGAGTCACCTAGTGCAG,11200 fluorescence intensity (a.u.)
10,CACTACCCTCACCCCATCTTCGATCACCTTCCGCCTCCCGCGGAGTCACCTAGTGCAG,8090 fluorescence intensity (a.u.)
11,CGGCTGTGGATGTGTAGATGTAATTTTTTTTTTCAATCCTCGGAGTCACCTAGTGCAG,9930 fluorescence intensity (a.u.)
12,TGGATCGTGGATGGACGGCGCCTATTTGATGTGGCTTTTCCGGAGTCACCTAGTGCAG,11100 fluorescence intensity (a.u.)
13,GGTCATTCCTGTGTTTTGCAATCCTCTGTTTTTCCTGCTACGGAGTCACCTAGTGCAG,12000 fluorescence intensity (a.u.)
14,TGTTTGTATGGGATTTTAGTGGGGTGTGGATTTTGACGGTCGGAGTCACCTAGTGCAG,9550 fluorescence intensity (a.u.)
15,CTCTCTCTCAGTCTCTACTCCTAGCTCGAGCTCCAATCTCCGGAGTCACCTAGTGCAG,10700 fluorescence intensity (a.u.)
16,CCACCAGTTCACCACCGCTGAAAGAATCAGCAGCAGCAGCCGGAGTCACCTAGTGCAG,8080 fluorescence intensity (a.u.)
17,TTGGTTTGTTTGTTTATGGCGATCTGTTGTTTGCTAGTTGCGGAGTCACCTAGTGCAG,8810 fluorescence intensity (a.u.)
18,AAAACCGCTTGTTTTTCGTTGCTGTACTCGTGTTGGAAGCCGGAGTCACCTAGTGCAG,9680 fluorescence intensity (a.u.)
19,GTCGGTGTCATCTCTCCTGCGAGCTACCGCGGCGGACATGCGGAGTCACCTAGTGCAG,9180 fluorescence intensity (a.u.)
20,CCCGCGTCTCGGCCCTCTCCGTCCTCGTTGCTTCCGACGCCGGAGTCACCTAGTGCAG,8780 fluorescence intensity (a.u.)
21,TTTCTTACCACCTTTGCTTGGCTTTACACCTCTTGTATGCCGGAGTCACCTAGTGCAG,9420 fluorescence intensity (a.u.)

# An excerpt of these results, tab-delimited.
row	Sequence	binding signal
1	ACATGTCCTTTTACGCTTATTTTCTACAATAACAACTATACGGAGTCACCTAGTGCAG	9910 fluorescence intensity (a.u.)
2	ACAGCTTCGTTCTTGACTTAATTAGGTCATTTTTTTGCAACGGAGTCACCTAGTGCAG	11200 fluorescence intensity (a.u.)
3	TTGATCTCAATCGCCGCCGCCGCCGCCGCCGCCGTCGCGGCGGAGTCACCTAGTGCAG	8260 fluorescence intensity (a.u.)
